These are yes or no findings as the source states them, for the method shown. In cells and extracts the contact can be indirect. Some binding calls cover weakened binding; strength is not graded here. Tags and fused reporters may be left off the sequences shown.
Target: T1, F-box and WD-repeat-containing protein 2 (FBXW2), HA-tagged (UniProt Q9UKT8)
T1 sequence: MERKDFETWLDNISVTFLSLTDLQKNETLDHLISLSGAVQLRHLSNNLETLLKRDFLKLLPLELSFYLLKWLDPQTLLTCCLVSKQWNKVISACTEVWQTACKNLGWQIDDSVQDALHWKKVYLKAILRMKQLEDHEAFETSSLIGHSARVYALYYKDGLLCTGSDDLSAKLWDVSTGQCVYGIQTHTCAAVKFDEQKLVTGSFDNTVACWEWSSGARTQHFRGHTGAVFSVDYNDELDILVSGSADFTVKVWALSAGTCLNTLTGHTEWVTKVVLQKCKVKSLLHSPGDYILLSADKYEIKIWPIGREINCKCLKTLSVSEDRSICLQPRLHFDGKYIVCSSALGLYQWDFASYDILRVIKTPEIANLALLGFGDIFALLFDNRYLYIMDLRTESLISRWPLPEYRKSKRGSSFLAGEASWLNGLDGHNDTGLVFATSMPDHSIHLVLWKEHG
Experiment: co-IP; transfected AGS cells lysed; anti-HA or anti-FLAG antibody used to pull down the complex; Western blot with anti-β-catenin or anti-FLAG antibody

Sequences of proteins named here, by UniProt entry; tags and fusion partners are left off.
UniProt P35222: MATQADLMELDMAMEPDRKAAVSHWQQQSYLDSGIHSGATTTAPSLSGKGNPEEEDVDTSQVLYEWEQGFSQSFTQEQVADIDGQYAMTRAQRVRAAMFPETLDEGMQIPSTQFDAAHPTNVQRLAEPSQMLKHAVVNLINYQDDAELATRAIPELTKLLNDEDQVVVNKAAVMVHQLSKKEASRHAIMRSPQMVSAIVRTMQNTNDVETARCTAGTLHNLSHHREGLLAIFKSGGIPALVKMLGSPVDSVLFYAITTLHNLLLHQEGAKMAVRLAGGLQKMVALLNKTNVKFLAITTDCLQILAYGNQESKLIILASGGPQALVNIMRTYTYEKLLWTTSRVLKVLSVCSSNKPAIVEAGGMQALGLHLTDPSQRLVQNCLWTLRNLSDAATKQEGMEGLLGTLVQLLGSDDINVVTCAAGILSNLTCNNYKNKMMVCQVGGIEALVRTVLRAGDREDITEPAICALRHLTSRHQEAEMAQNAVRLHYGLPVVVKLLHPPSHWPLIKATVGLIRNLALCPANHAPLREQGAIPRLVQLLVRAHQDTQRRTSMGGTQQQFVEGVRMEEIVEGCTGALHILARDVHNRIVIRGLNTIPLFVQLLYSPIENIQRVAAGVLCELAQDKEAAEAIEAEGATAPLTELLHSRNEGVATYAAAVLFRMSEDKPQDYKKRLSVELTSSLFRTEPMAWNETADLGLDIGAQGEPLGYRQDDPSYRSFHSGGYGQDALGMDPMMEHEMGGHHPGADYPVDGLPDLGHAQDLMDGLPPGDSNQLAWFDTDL

β-catenin (from UniProt P35222 1-781)
binding: binds

Source: publication PMC11983310
